Data as given in PubChem BioAssay AID2551 (National Center for Advancing Translational Sciences (NCATS), 2010).
Out of some 310,000 compounds screened, about 17,000 (5.5%) were called active. The shares of active, inactive and inconclusive entries below differ from those in the screen. Calls come from the whole dose curve; as a rule, active = well fitted inhibition curve with a large enough effect; inconclusive = small, poorly fitted or top-dose-only effect, or effect the other way; inactive = no such curve, though single readings can be large or run the other way. A potency beside an inconclusive call is a rough fit, not a confirmed value.

By UniProt entry, the sequences of proteins in these tests, tags left out. Where a name states a change or a piece, a line headed by the entry shows the natural chain unless it says otherwise.
UniProt P51450: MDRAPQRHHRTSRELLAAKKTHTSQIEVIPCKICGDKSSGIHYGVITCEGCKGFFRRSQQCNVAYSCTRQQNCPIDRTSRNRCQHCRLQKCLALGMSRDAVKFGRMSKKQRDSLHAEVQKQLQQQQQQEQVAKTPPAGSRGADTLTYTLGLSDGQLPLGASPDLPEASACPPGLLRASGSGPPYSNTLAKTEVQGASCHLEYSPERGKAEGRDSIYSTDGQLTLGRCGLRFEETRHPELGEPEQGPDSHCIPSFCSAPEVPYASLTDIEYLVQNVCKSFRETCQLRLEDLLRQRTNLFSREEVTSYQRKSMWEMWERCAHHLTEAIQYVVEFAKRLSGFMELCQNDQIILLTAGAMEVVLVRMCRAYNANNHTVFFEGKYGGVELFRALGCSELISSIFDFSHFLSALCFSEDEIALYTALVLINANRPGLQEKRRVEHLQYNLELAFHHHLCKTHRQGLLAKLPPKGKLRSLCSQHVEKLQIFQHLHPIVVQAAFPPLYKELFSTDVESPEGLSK

Each compound was assayed against Nuclear receptor ROR-gamma (Mus musculus) (UniProt P51450) (assay: qHTS for inhibitors of ROR gamma transcriptional activity). Conditions: Drosophila S2 Gal4-RORgamma UAS-luciferase reporter, 20 h; series mostly up to 53.6 µM.
Summary of the method: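 Read-out: Photinus luciferase luminescence; inhibitors lower reporter signal. Insect Schneider cells with Gal4-ROR gamma fusion under metallothionein promoter, UAS reporter; 700 uM final copper sulfate induction, 20 hr, ambient temperature.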
Note: nearly all actives have a fitted effect of over 60% in size.
Potency is the fitted concentration of half-maximal effect.

Compound	Potency
CC(=O)c1cc(-c2ccccc2)n(CCC(=O)NC2CCCCC2)c1C	inactive
CCOC(=O)c1ccc(NC(=O)c2nc[nH]c2C(=O)N[C@@H](CCCCNC(=O)OC(C)(C)C)C(=O)OC(C)(C)C)cc1	active: 11.2 µM
c1ccc(CN2CCC3(CC2)Nc2ccccc2CO3)cc1	inactive
C/C(=N\N=C1/NC(=O)C(C)S1)c1ccco1 (centres undefined)	active: 11.2 µM
CC[n+]1c(C=C2C=C(C)OC(C)=C2)sc2ccccc21	inconclusive: 7.94 µM [inhibitor, partial curve, poor fit]
Cc1nn(Cc2ccccc2)c(Cl)c1C(=O)NCCc1ccc(Cl)cc1	inconclusive: 10 µM [activator, partial curve]
COc1ccc(Nc2nc(NN)nc(C)c2[N+](=O)[O-])cc1	inconclusive: 10 µM [inhibitor, partial curve]
O=C(Nc1ccc2c(c1)OCCO2)c1ccc(Cl)cc1Cl	inconclusive: 12.6 µM [inhibitor, single point]
COc1ccc(C2Nc3ccccc3C(=O)N2Cc2ccco2)cc1COc1ccc([N+](=O)[O-])cc1 (centres undefined)	inactive
C=CCNc1nc2c(c(=O)n(C)c(=O)n2C)n1CCCCCC	inconclusive: 20 µM [inhibitor, single point]
CC(C)(C)C1C/C(=C/c2ccco2)C(=O)/C(=C/c2ccco2)C1 (centres undefined)	inconclusive: 35.5 µM [inhibitor, single point]
Cc1ccc(C(=O)N2N=C(CC(C)C)CC2(O)C(F)(F)F)o1 (centres undefined)	inconclusive: 25.1 µM [inhibitor, single point]
CCOC(=O)c1sc2nc(C)nc(Nc3ccc(OC)cc3)c2c1C	inactive
Cc1c(C)n(Cc2ccccc2)c2ncnc(NN)c12	inconclusive: 11.2 µM [inhibitor, partial curve, poor fit]
O=C(N/N=C/c1ccco1)c1cc(-c2ccc3ccccc3c2)n[nH]1	inconclusive: 22.4 µM [inhibitor, single point]
O=C(Nc1cc(Cl)ccc1N1CCOCC1)c1ccc(Br)o1	inconclusive: 12.6 µM [inhibitor, single point]
CC(=O)c1ccc(-c2ccc(C(=O)N3CCN(c4ccc(F)cc4)CC3)o2)cc1	inconclusive: 35.5 µM [activator, single point]
O=C(CNC(=O)c1ccc2c(c1)OCO2)N/N=C/c1cc(Br)ccc1O	active: 20 µM
Cc1c(C(=O)N2CCCCC2)sc(NC(=O)c2ccco2)c1C#N	inconclusive: 22.4 µM [activator, single point]
Clc1ccsc1-c1ccc2ccccc2n1	inconclusive: 1.78 µM [activator, full curve]
O=C(NC(=S)N1CCN(C2CCCCC2)CC1)c1ccccc1	active: 0.891 µM
CCN1CCN(c2cc(C)c3cc(NC(=S)N(CC)CC)ccc3n2)CC1	inactive

Copied from the list.
`C/C(=N\N=C1/NC(=O)C(C)S1)c1ccco1` (centres undefined) | Potency: active: 11.2 µM
`O=C(N/N=C/c1ccco1)c1cc(-c2ccc3ccccc3c2)n[nH]1` | Potency: inconclusive: 22.4 µM [inhibitor, single point]

(cont.)

Compound	Potency
CCOC(=O)c1ccc(-c2ccc(/C=C(\C#N)C(=O)NCc3cccs3)o2)cc1	inconclusive: 4.47 µM [inhibitor, full curve]
CCCC(=O)Nc1nc2ccc3nc(C)sc3c2s1	inconclusive: 5.01 µM [activator, partial curve]
CCc1cccc2c(C(=O)CN3C(=O)NC(C)(c4cccc5ccccc45)C3=O)c[nH]c12 (centres undefined)	inconclusive: 31.6 µM [activator, single point]
CCN(CC)S(=O)(=O)c1ccc(NC(=O)C(C)N(c2ccccc2)S(C)(=O)=O)cc1 (centres undefined)	inconclusive: 1.41 µM [activator, partial curve, poor fit]
CCCNC(=O)COC(=O)c1[nH]c(C)c(C(=O)OCC)c1C	inconclusive: 12.6 µM [activator, single point]
COc1cc(C(=O)NNC(=S)NC(=O)c2ccc(F)cc2)cc(OC)c1OC	inconclusive: 0.501 µM [inhibitor, full curve]
COc1cccc(N2CCN(CC(=O)NC(C)c3ccccc3)CC2)c1 (centres undefined)	inactive
O=C(Nc1ccc2c(c1)OCCO2)c1cc2sccc2n1Cc1ccc(F)cc1	inconclusive: 12.6 µM [activator, partial curve]
CCOC(=O)c1cc2nc(-c3ccco3)cc(C(F)(F)F)n2n1	inconclusive: 7.08 µM [activator, full curve, poor fit]
CCN1C(=O)/C(=C/C=C2/CCCN2C)OC1=S	inactive
Cc1cc(/C=N/NC(=O)c2cccnc2)c(C)n1CC(C)C	inconclusive: 28.2 µM [inhibitor, single point]
Cc1ccc(Nc2nc(N/N=C\c3ccc4c(c3)OCO4)nc(N3CCOCC3)n2)cc1	active: 8.91 µM
Cc1cc(C)c(C)c(S(=O)(=O)N2CCN(C(=O)c3cc(=O)[nH]c4ccccc34)CC2)c1C	inconclusive: 35.5 µM [activator, single point]
CCOC(=O)C1CCN(C(=O)c2sc3nc(C)nc(N4CCC(C)CC4)c3c2C)CC1	inconclusive: 6.31 µM [activator, partial curve]
COc1ccc2nc(CC(C)(C)CC(=O)O)c[n+]([O-])c2c1	inactive
Cc1ccc(NCC(=O)N/N=C\C(Br)=C\c2ccccc2)cc1	inconclusive: 15.8 µM [inhibitor, single point]
C/C(Cn1nnc2ccccc21)=N\NC(=O)c1ccc(Br)cc1	inconclusive: 11.2 µM [inhibitor, single point]
S=C(Nc1cccc(Cl)c1)NC1CC2CCCC(C1)N2C1CCCC1 (centres undefined)	inactive
CCCCOCCCN1CC(=O)N2[C@@H](Cc3c([nH]c4ccccc34)C2(C)C)C1=O	inconclusive: 20 µM [activator, single point]
Cc1ccc(C)c(NCc2n[nH]c(=S)n2-c2ccccc2)c1	inactive
Cc1c(Cl)c([N+](=O)[O-])nn1Cc1ccc(C(=O)Nc2ccc(Cl)cn2)o1	inconclusive: 11.2 µM [activator, partial curve]
COc1ccc(C(c2sc3ncnn3c2O)N2CC(C)OC(C)C2)cc1OC (centres undefined)	inconclusive: 11.2 µM [activator, partial curve]
